From PubChem BioAssay record AID463188 (University of Pittsburgh Molecular Library Screening Center, 2010).

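Counterscreen z-score for each compound in a recombinant Hck-YEEI:Nef Z-Lyte FRET kinase setup using a p-Tyr peptide, with a 50 min kinase step and 60 min development. Compounds were tested at a single concentration of 10 µM. The number is a z-score for the p-Tyr peptide counterscreen; higher values mean a stronger counterscreen signal, and values above 3 mark a compound as likely interfering.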

Common to all entries: measured here: p-Tyr peptide counterscreen. This is a side read-out of the assay, for part of the compounds, not drawn at random.

SMILES	z-score
CCN(CC)c1cc(NCCO)c([N+](=O)[O-])c2nonc12	0.9409
COc1ccc(-c2noc(CSc3nc(-c4ccccc4)cc(=O)[nH]3)n2)cc1OC	0.6498
Cc1cc(/C=C2\NC(=O)NC2=O)c(C)n1-c1cccnc1	0.2371
COc1ccc(C(=O)Nc2cccc(-c3cc4ccccc4oc3=O)c2)cc1[N+](=O)[O-]	1.573
CCc1ccc(Nc2ncnc3nc[nH]c23)cc1	-1.203
COc1c(O)c(O)c2oc(-c3ccccc3)cc(=O)c2c1OC	0.109
O=C(N/N=C/c1ccc(-c2ccc(Cl)c(C(=O)O)c2)o1)c1cc2c(ccc3ccccc32)o1	1.832
COc1cc(/C=C2/C(=N)N3C(c4ccccc4)=CSC3=NC2=O)ccc1OCC(=O)O	-2.017
COc1ccc(N=C2NC(=O)/C(=C\c3ccco3)S2)cc1	0.2487
OCCCNc1cc(-c2ccnc(Nc3cccc(Cl)c3)n2)ccn1	-0.03874
c1coc(-c2nc(-c3ccco3)c(-c3ccco3)nc2-c2ccco2)c1	2.615
CC(=O)Oc1ccc2c(C)cc(=O)oc2c1	14.36
O=C(N/N=C/c1ccc(O)cc1)Nc1cccc2nsnc12	-0.7546
NC(=S)N/N=C/c1coc2c(ccc3ccccc32)c1=O	1.198
CC1=NNC(=O)/C1=C\c1cn(-c2ccccc2)nc1-c1ccccc1	-1.45
CC(C)CNC(=O)c1c(N)n(/N=C/c2ccccn2)c2nc3ccccc3nc12	2.004
C=CCN1C(=O)NC(=O)/C(=C\c2ccc(-c3ccccc3[N+](=O)[O-])o2)C1=O	1.214
Fc1ccc(N2N=C(c3cccs3)CC2c2ccccc2)cc1 (stereo not drawn)	24.86
O=C(Cn1nc(C(=O)O)c2ccccc2c1=O)Nc1nc(-c2ccccc2)cs1	-1.402
COc1cccc(Nc2ncc(C#N)c(N)n2)c1	-1.486
CC(=O)Nc1ccc(N2C(=O)c3ccc(C(=O)Nc4nnc(SCc5ccc(F)cc5)s4)cc3C2=O)cc1	0.3441
CCOc1ccc(-n2c(N)c(C(=O)NCc3ccco3)c3nc4ccccc4nc32)cc1	3.692
Cc1ccc(-c2nn3c(C)nnc3s2)cc1NC(=O)c1ccc(-c2ccc(Cl)cc2Cl)o1	-1.634
CN=c1scc(-c2ccco2)n1/N=C/c1ccc(O)c(O)c1	0.9249
COc1ccc(-c2nc(-c3ccc(O)cc3O)cs2)cc1OC	-1.373
N#CCC(=O)N/N=C/c1coc2ccccc2c1=O	-2.071
COc1ccc(/C=C(\C#N)C(=O)Nc2ccc3[nH]c(=O)[nH]c3c2)cc1	-0.7743
CCOc1ccc(-c2ccc(C=O)o2)c([N+](=O)[O-])c1	-1.639
CC[C@H](CO)Nc1nc(Nc2cccc(Cl)c2)c2ncn(C(C)C)c2n1	-0.7091
Cc1ccc(C(=O)NC(=S)Nc2ccc(-c3ccc(CO)o3)cc2)cc1	-0.2777
O=C(CCCN1C(=O)/C(=C/c2ccco2)SC1=S)Nc1cccc(C(=O)O)c1	0.02279
N#C/C(=C\c1ccc(-c2cccc([N+](=O)[O-])c2)o1)C(=O)Nc1nc(-c2cccs2)cs1	-1.735
CC(=O)Nc1ccc(N=Cc2c(O)c(C(=O)Nc3ccccc3)cc3ccccc23)cc1	-1.639
COc1ccc(C(=O)Nc2ccc(O)c3c(=O)cc(-c4cccc(Cl)c4)oc23)cc1	-1.976
Cc1ccsc1/C=N/Nc1ncnc2nc[nH]c12	-1.558
COc1ccc(CCn2c(=S)[nH]c3cc(C(=O)NCc4ccco4)ccc3c2=O)cc1OC	1.315
COc1ccccc1/C=C/C=c1\sc2nc(=O)c(Cc3ccccc3)nn2c1=O	-1.27
COc1ccc(/C=C2\SC(=N)N(c3ccc(F)cc3)C2=O)cc1OC	-0.03185
O=C1NC(=Nc2ccc(O)cc2)S/C1=C/c1ccco1	-1.451
CC1(OC(=O)C2CCCC2)C(=O)C=C2C=C(c3ccsc3)OC=C2C1=O (stereo not drawn)	-1.628
O=c1oc2ccccc2c(O)c1C(c1ccc([N+](=O)[O-])cc1)c1c(O)c2ccccc2oc1=O	-2.404
COc1ccc(-c2cc(-c3ccco3)[nH]c(=O)c2C#N)cc1OC	3.206
CC1(C)OC(=O)C(=Cc2ccc(-c3ccc(Cl)c(C(=O)O)c3)o2)C(=O)O1	-1.813
Cc1nc2ccccc2nc(=O)c1NNc1ccccc1	1.498
CCOC(=O)c1cc(-c2ccc(/C=C3/C(=O)NC(=O)C(C#N)=C3C)o2)ccc1Cl	2.356
Cc1cc(C)c(Nc2cc(S(=O)(=O)O)c(N)c3c2C(=O)c2ccccc2C3=O)c(C)c1	1.027
COc1cccc(C(=O)/C=C2\Sc3ccccc3N2C)c1	21.21
Oc1[nH]c2ccccc2c1C=Nc1ccc2c(c1)OCO2	1.173
Cc1ccc(O)c(N=Cc2cc(Cc3ccccc3)cc([N+](=O)[O-])c2O)c1	1.849
O=C(/C=C/c1ccc(Br)o1)Nc1nnc(C2CC2)s1	-1.284
COc1ccc(NC(=O)c2cc3c(=O)n(C)c4ccccc4c3n2C)cc1Cl	0.3221
Cc1sc2ncnc(SCC(=O)Nc3nc(-c4ccc(F)c(F)c4)cs3)c2c1C	0.8349
CCN1C(=O)/C(=C\c2cn(-c3ccccc3)nc2-c2cccnc2)SC1=S	0.01213
O=C(Cn1nnc(-c2ccc(NC(=O)c3ccccc3F)cc2)n1)NCc1ccc(F)cc1	-1.816
Cc1ccc(NC(=O)CCC(=O)N/N=C/c2coc3ccccc3c2=O)cc1	0.8391
CC(=O)N=c1c(C#N)cc2c(=O)n3cccc(C)c3nc2n1Cc1ccco1	21.1
NS(=O)(=O)c1ccc(N2N=C(c3ccc(Br)cc3)CC2c2ccc(F)cc2)cc1 (stereo not drawn)	135.9
Cc1cc(C)c2c(c1)/C(=c1/sc3n(c1=O)CN(c1ccccc1)CN=3)C(=O)N2	0.01554
NC(=S)N/N=C/c1coc2ccc(Br)cc2c1=O	1.023
O=C(Oc1ccc(Nc2ncnc3ccccc23)cc1)c1cccnc1	-0.7963
COc1cc2c(cc1OC)CN(c1nc(-c3cccnc3)nc3ccccc13)CC2	-1.92
CCOc1cc(/C=N/NC(=O)c2ccc(-c3csc(Nc4ccc(C)cc4)n3)cc2)ccc1OCC(=O)O	-1.315
CCN(CC)c1ccc(/C=N/n2nnnc2N)c(O)c1	26.83
CCN1C(=O)/C(=C\c2ccc(-c3ccc([N+](=O)[O-])cc3OC)o2)SC1=Nc1cccc(C(=O)O)c1	0.009046
COc1cc(NC(=O)c2cccs2)c(OC)cc1NC(=O)CCC(=O)Nc1ccc2ncccc2c1	-1.932